Results are given in words; binding and its absence hold for the method and conditions named. For some of these results: Binding seen in cells or lysates may run through a third protein. Some results given as binding are weak or reduced against the parent protein; the word gives no strength.
T1: murine STUB1 spot-synthesised peptides covering amino acids 150–190 (spots 1–5) (mouse) (UniProt Q9WUD1)
T1 sequence (peptide): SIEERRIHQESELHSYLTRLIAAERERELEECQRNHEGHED

Amino acid sequences for entries named in this document (tags omitted).
UniProt P13861: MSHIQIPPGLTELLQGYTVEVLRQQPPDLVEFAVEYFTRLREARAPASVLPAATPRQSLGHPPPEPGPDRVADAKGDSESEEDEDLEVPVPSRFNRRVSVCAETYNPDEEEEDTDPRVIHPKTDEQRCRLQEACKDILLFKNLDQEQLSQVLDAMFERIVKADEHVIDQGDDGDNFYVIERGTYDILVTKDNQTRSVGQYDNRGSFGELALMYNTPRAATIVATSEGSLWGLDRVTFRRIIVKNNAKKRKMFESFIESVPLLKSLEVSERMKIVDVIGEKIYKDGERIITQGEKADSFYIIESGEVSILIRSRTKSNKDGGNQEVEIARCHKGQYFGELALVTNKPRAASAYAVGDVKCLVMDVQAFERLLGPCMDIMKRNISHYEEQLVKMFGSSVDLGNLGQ
UniProt Q04899: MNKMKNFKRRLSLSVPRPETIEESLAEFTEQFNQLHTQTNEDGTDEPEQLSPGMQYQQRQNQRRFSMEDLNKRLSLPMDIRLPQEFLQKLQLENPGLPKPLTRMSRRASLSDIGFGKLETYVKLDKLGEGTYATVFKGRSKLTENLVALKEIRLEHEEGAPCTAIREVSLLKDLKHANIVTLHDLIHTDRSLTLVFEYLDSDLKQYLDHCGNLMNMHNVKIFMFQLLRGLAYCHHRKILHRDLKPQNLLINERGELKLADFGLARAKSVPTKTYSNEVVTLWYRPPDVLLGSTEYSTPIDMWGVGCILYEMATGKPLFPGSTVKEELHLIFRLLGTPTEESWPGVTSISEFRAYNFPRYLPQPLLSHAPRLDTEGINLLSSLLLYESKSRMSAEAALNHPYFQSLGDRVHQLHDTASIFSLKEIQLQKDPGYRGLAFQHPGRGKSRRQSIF
UniProt P12367: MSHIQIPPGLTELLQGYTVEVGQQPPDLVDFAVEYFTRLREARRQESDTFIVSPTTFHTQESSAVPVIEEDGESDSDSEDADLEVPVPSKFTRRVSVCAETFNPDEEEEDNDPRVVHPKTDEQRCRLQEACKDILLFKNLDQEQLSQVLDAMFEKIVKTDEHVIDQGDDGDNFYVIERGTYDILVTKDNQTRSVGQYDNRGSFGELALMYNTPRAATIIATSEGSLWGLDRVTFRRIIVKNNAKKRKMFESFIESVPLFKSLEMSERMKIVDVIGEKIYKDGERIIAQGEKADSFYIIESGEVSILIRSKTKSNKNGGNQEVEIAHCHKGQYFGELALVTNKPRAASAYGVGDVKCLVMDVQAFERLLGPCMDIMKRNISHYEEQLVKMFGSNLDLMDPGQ


Assays:
[1] = biological target: STUB1 (STIP1 homology and U-box containing protein 1) (mouse (endogenous in MCD4)) (UniProt Q9WUD1); assay: co-IP; anti-STUB1 on Protein A Dynabeads, MCD4 lysate in mild lysis buffer, 1-3 h at 4 °C; cells untreated or stimulated with forskolin; control IgG
[2] = biological target: T1, murine STUB1 spot-synthesised peptides covering amino acids 150–190 (spots 1–5) (mouse); assay: peptide or protein array; RII overlay: murine STUB1 spot-synthesised as 20-mer peptides with 5 residues offset, incubated with 32P-labelled recombinant human RIIα in the absence or presence of peptide L314E; both purified

Molecule | binding [1] | binding [2]
recombinant human RIIα subunits of PKA, 32P-labelled (from UniProt P13861 1-404) | – | binds
aquaporin-2 (AQP2), human, stably expressed in MCD4 cells (protein, UniProt P41181 1-271) MWELRSIAFSRAVFAEFLATLLFVFFGLGSALNWPQALPSVLQIAMAFGLGIGTLVQALGHISGAHINPAVTVACLVGCHVSVLRAAFYVAAQLLGAVAGAALLHEITPADIRGDLAVNALSNSTTAGQAVTVELFLTLQLVLCIFASTDERRGENPGTPALSIGFSVALGHLLGIHYTGCSMNPARSLAPAVVTGKFDDHWVFWIGPLVGAILGSLLYNYVLFPPAKSLSERLAVLKGLEPDTDWEEREVRRRQSVELHSPQSLPRGTKA | binds | –

The next lines start with the values.

binding [1] | binding [2] | Molecule
binds | – | cyclin-dependent kinase 18 (CDK18), endogenous (from UniProt Q04899 1-451) (enzyme)
binds | – | regulatory RIIα subunits of PKA, endogenous (from UniProt P12367 1-401)

From PMC7140648
